Measured values published in the supplement of paper PMC9433722.
Structures can show the parent of a compound that is named as a salt. The list shows a part of the results. Repeats are few or missing, and single values can be far off.

How the values were obtained:
[1] = tested on: Saos-2; assay: cell viability (CCK-8) relative to DMSO control (% of control); higher = less cytotoxic; settings: 10 µM; 48 h
[2] = tested on: U2OS; assay: as above; settings: 10 µM; 48 h

SMILES | cell viability [1] | cell viability [2]
O=C1CN(/N=C/c2ccc([N+](=O)[O-])o2)C(=O)N1 [Nitrofurantoin] | 105 | 86.1
Clc1ccc2c(c1)CCc1cccnc1C2=C1CCNCC1 [Desloratadine] | 71.2 | 108
CCCCc1oc2ccccc2c1C(=O)c1cc(I)c(OCCN(CC)CC)c(I)c1 [Amiodarone hydrochloride] | 58 | 92.9
C[C@@H]1[C@H](O)[C@@H](C)/C=C/C=C/C=C/C=C/C=C/C=C/C=C/[C@H](O[C@@H]2O[C@H](C)[C@@H](O)[C@H](N)[C@@H]2O)C[C@@H]2O[C@](O)(C[C@@H](O)C[C@@H](O)[C@H](O)CC[C@@H](O)C[C@@H](O)CC(=O)O[C@H]1C)C[C@H](O)[C@H]2C(=O)O [Amphotericin B] | 120 | 99
CC(S)C(=O)NCC(=O)O (configuration not stated) [Tiopronin] | 106 | 98
COc1ccc2[nH]c([S+]([O-])Cc3ncc(C)c(OC)c3C)nc2c1 (configuration not stated) [Omeprazole] | 67.4 | 90.6
O=NN(CCCl)C(=O)NCCCl [Carmustine] | 110 | 101
Cc1cc(C(=O)NNCc2ccccc2)no1 [Isocarboxazid] | 107 | 88.6
CCC1(C)CC(=O)NC1=O (configuration not stated) [Ethosuximide] | 109 | 97
Cc1c2oc3c(C)ccc(C(=O)N[C@@H]4C(=O)N[C@H](C(C)C)C(=O)N5CCC[C@H]5C(=O)N(C)CC(=O)N(C)[C@@H](C(C)C)C(=O)O[C@@H]4C)c3nc-2c(C(=O)N[C@@H]2C(=O)N[C@H](C(C)C)C(=O)N3CCC[C@H]3C(=O)N(C)CC(=O)N(C)[C@@H](C(C)C)C(=O)O[C@@H]2C)c(N)c1=O [Actinomycin D] | 36.6 | 30.2
NCCc1ccc(O)c(O)c1 [Dopamine·HCl] | 101 | 112
CC(=O)Oc1ccc(C(c2ccc(OC(C)=O)cc2)c2ccccn2)cc1 [Bisacodyl] | 68.5 | 103
O=c1[nH]c(=O)n([C@H]2C[C@H](O)[C@@H](CO)O2)cc1I [Idoxuridine] | 67.8 | 99.1
CC(=O)O[C@]1(C(C)=O)CC[C@H]2[C@@H]3C[C@H](C)C4=CC(=O)CC[C@]4(C)[C@H]3CC[C@@]21C [Medroxyprogesterone Acetate] | 70 | 93.9
CCCOc1ccc(C(=O)OCCN(CC)CC)cc1N [Proparacaine·HCl] | 99.2 | 79.5
CCCCCOc1ccc(-c2cc(-c3ccc(C(=O)N[C@H]4C[C@@H](O)[C@@H](O)NC(=O)[C@@H]5[C@@H](O)[C@@H](C)CN5C(=O)[C@H]([C@H](O)CC(N)=O)NC(=O)[C@H]([C@H](O)[C@@H](O)c5ccc(O)c(OS(=O)(=O)O)c5)NC(=O)[C@@H]5C[C@@H](O)CN5C(=O)[C@H]([C@@H](C)O)NC4=O)cc3)no2)cc1 [Micafungin] | 112 | 107

Whole records, quoted from the list.
CC(=O)Oc1ccc(C(c2ccc(OC(C)=O)cc2)c2ccccn2)cc1 [Bisacodyl] reads cell viability [1]: 68.5; cell viability [2]: 103
CCCOc1ccc(C(=O)OCCN(CC)CC)cc1N [Proparacaine·HCl] reads cell viability [1]: 99.2; cell viability [2]: 79.5

Next part.

SMILES | cell viability [1] | cell viability [2]
C[C@@H]1C/C=C/C=C/C=C/C=C/[C@H](O[C@@H]2O[C@H](C)[C@@H](O)[C@H](N)[C@@H]2O)C[C@@H]2O[C@](O)(C[C@@H](O)C[C@H]3O[C@@H]3/C=C/C(=O)O1)C[C@H](O)[C@H]2C(=O)O [Natamycin] | 104 | 101
CCCNCC(O)COc1ccccc1C(=O)CCc1ccccc1 (configuration not stated) [Propafenone hydrochloride] | 61.2 | 120
CCCCc1ncc(/C=C(\Cc2cccs2)C(=O)O)n1Cc1ccc(C(=O)O)cc1 [Eprosartan Mesylate] | 59.3 | 119
Cc1nc2n(c(=O)c1CCN1CCC(c3noc4cc(F)ccc34)CC1)CCCC2 [Risperidone] | 60.9 | 107
NC(=O)Cc1cccc(C(=O)c2ccccc2)c1N [Nepafenac] | 110 | 100
Nc1nc2[nH]cc(CCc3ccc(C(=O)N[C@@H](CCC(=O)O)C(=O)O)cc3)c2c(=O)[nH]1 [Pemetrexed Disodium] | 107 | 105
O=C1C(O)=C([C@H]2CC[C@H](c3ccc(Cl)cc3)CC2)C(=O)c2ccccc21 [Atovaquone] | 58.9 | 101
CC1(C)S[C@@H]2[C@H](NC(=O)Cc3ccccc3)C(=O)N2[C@H]1C(=O)O [Penicillin G potassium salt] | 109 | 108
C=CC1=C(C(=O)O)N2C(=O)[C@@H](NC(=O)/C(=N\OCC(=O)O)c3csc(N)n3)[C@H]2SC1 [Cefixime] | 112 | 65.7
CC(=O)/N=c1/sc(S(N)(=O)=O)nn1C [Methazolamide] | 90.8 | 92.5
CNC(=C[N+](=O)[O-])NCCSCc1csc(CN(C)C)n1 [Nizatidine] | 107 | 100
CC(C(=O)O)c1ccc(-c2ccccc2)c(F)c1 (configuration not stated) [Flurbiprofen] | 71.6 | 100
CCN1CCN(C(=O)N[C@@H](C(=O)N[C@@H]2C(=O)N3[C@@H]2SC(C)(C)[C@@H]3C(=O)O)c2ccccc2)C(=O)C1=O [Piperacillin] | 64.6 | 102
CNCC[C@@H](Oc1ccccc1C)c1ccccc1 [Atomoxetine . Hydrochloride] | 109 | 85.7
C#C[C@]1(O)CC[C@H]2[C@@H]3CCc4cc(O)ccc4[C@H]3CC[C@@]21C [17alpha-Ethynylestradiol] | 99.2 | 79.1
